The target in experiment [1] is T1, NOP14 tagged with S-FLAG-SBP (SFB) (human) (UniProt P78316).
T1 sequence: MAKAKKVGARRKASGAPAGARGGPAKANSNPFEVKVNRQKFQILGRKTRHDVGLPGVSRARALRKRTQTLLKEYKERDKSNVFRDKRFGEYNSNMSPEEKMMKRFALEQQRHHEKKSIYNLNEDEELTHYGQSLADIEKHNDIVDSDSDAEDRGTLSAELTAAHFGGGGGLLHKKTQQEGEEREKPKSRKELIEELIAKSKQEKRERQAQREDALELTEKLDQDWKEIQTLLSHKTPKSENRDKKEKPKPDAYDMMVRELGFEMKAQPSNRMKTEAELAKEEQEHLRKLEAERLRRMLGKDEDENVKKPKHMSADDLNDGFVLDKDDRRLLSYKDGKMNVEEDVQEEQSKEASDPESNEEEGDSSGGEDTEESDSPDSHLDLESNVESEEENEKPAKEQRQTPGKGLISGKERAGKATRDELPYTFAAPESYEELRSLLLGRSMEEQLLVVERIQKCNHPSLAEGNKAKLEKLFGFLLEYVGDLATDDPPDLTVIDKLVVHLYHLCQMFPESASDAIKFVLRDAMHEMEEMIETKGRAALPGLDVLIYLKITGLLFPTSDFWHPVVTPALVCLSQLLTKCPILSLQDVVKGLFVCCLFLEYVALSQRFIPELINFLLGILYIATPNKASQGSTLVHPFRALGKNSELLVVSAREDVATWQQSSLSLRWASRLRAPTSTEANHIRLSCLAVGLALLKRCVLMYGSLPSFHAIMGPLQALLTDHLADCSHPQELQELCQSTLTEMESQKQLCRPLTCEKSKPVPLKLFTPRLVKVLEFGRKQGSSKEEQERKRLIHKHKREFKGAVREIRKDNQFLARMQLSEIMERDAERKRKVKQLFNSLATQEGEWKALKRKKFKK
The experiment in a line: co-IP; SFB-tagged NOP14 with HA-tagged prey proteins; cell lysates precipitated with S-protein beads, immunoblot. In general terms: In western blotting, separated proteins are transferred to a membrane and probed.

Chains of the proteins cited; added tags and fusions are not shown.
UniProt Q9BPZ7: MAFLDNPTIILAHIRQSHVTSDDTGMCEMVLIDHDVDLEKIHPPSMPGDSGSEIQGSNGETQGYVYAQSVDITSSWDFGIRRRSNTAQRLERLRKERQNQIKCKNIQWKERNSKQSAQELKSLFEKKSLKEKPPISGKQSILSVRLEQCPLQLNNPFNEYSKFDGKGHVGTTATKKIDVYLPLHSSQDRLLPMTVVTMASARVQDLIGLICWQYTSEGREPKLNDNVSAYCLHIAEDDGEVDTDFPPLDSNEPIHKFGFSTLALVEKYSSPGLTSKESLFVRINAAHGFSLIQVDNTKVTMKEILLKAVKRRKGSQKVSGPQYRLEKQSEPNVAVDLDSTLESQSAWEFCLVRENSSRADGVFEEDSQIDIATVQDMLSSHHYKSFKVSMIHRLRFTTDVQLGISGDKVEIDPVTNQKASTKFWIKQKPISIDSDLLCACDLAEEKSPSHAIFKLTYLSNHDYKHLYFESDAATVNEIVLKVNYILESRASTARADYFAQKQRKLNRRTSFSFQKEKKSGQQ

Experiment [2] deals with Sin1 (human (endogenous in 293T)) (UniProt Q9BPZ7). The experiment in a line: co-IP; 293T cells with scrambled or NOP14 shRNA (72 h); lysates in CHAPS buffer immunoprecipitated with anti-Sin1 antibody or control IgG, immunoblot.

No constants are given. Whether binding was seen depends on the method and setting. Binding seen in cells or lysates may run through a third protein. Some entries that bind do so weakly or less than the wild type. For part of these data: Sequences can lack the tags named with a protein.

The values that follow come from publication PMC10891341.

B1: HA-tagged NOC4L (protein, UniProt Q9BVI4 1-516)
chain: MEREPGAAGVRRALGRRLEAVLASRSEANAVFDILAVLQSEDQEEIQEAVRTCSRLFGALLERGELFVGQLPSEEMVMTGSQGATRKYKVWMRHRYHSCCNRLGELLGHPSFQVKELALSALLKFVQLEGAHPLEKSKWEGNYLFPRELFKLVVGGLLSPEEDQSLLLSQFREYLDYDDTRYHTMQAAVDAVARVTGQHPEVPPAFWNNAFTLLSAVSLPRREPTVSSFYVKRAELWDTWKVAHLKEHRRVFQAMWLSFLKHKLPLSLYKKVLLIVHDAILPQLAQPTLMIDFLTRACDLGGALSLLALNGLFILIHKHNLEYPDFYRKLYGLLDPSVFHVKYRARFFHLADLFLSSSHLPAYLVAAFAKRLARLALTAPPEALLMVLPFICNLLRRHPACRVLVHRPHGPELDADPYDPGEEDPAQSRALESSLWELQALQRHYHPEVSKAASVINQALSMPEVSIAPLLELTAYEIFERDLKKKGPEPVPLEFIPAQGLLGRPGELCAQHFTLS
Consider B1, for which the binding result in experiment [1] is “binds”.

B2: HA-tagged BYSL (protein, UniProt Q13895 1-437)
chain: MPKFKAARGVGGQEKHAPLADQILAGNAVRAGVREKRRGRGTGEAEEEYVGPRLSRRILQQARQQQEELEAEHGTGDKPAAPRERTTRLGPRMPQDGSDDEDEEWPTLEKAATMTAAGHHAEVVVDPEDERAIEMFMNKNPPARRTLADIIMEKLTEKQTEVETVMSEVSGFPMPQLDPRVLEVYRGVREVLSKYRSGKLPKAFKIIPALSNWEQILYVTEPEAWTAAAMYQATRIFASNLKERMAQRFYNLVLLPRVRDDVAEYKRLNFHLYMALKKALFKPGAWFKGILIPLCESGTCTLREAIIVGSIITKCSIPVLHSSAAMLKIAEMEYSGANSIFLRLLLDKKYALPYRVLDALVFHFLGFRTEKRELPVLWHQCLLTLVQRYKADLATDQKEALLELLRLQPHPQLSPEIRRELQSAVPRDVEDVPITVE
Take B2: the binding result in experiment [1] was “binds”.

B3: NOP14 (protein, UniProt P78316 1-857)
chain: MAKAKKVGARRKASGAPAGARGGPAKANSNPFEVKVNRQKFQILGRKTRHDVGLPGVSRARALRKRTQTLLKEYKERDKSNVFRDKRFGEYNSNMSPEEKMMKRFALEQQRHHEKKSIYNLNEDEELTHYGQSLADIEKHNDIVDSDSDAEDRGTLSAELTAAHFGGGGGLLHKKTQQEGEEREKPKSRKELIEELIAKSKQEKRERQAQREDALELTEKLDQDWKEIQTLLSHKTPKSENRDKKEKPKPDAYDMMVRELGFEMKAQPSNRMKTEAELAKEEQEHLRKLEAERLRRMLGKDEDENVKKPKHMSADDLNDGFVLDKDDRRLLSYKDGKMNVEEDVQEEQSKEASDPESNEEEGDSSGGEDTEESDSPDSHLDLESNVESEEENEKPAKEQRQTPGKGLISGKERAGKATRDELPYTFAAPESYEELRSLLLGRSMEEQLLVVERIQKCNHPSLAEGNKAKLEKLFGFLLEYVGDLATDDPPDLTVIDKLVVHLYHLCQMFPESASDAIKFVLRDAMHEMEEMIETKGRAALPGLDVLIYLKITGLLFPTSDFWHPVVTPALVCLSQLLTKCPILSLQDVVKGLFVCCLFLEYVALSQRFIPELINFLLGILYIATPNKASQGSTLVHPFRALGKNSELLVVSAREDVATWQQSSLSLRWASRLRAPTSTEANHIRLSCLAVGLALLKRCVLMYGSLPSFHAIMGPLQALLTDHLADCSHPQELQELCQSTLTEMESQKQLCRPLTCEKSKPVPLKLFTPRLVKVLEFGRKQGSSKEEQERKRLIHKHKREFKGAVREIRKDNQFLARMQLSEIMERDAERKRKVKQLFNSLATQEGEWKALKRKKFKK
Turning to B3, the binding entry in experiment [2] is “no binding”.
